Measured values: PubChem BioAssay AID1487 (National Center for Advancing Translational Sciences (NCATS), 2009)
Some of the results follow. The main result of the screen is listed elsewhere. These columns were measured beside it and carry no call. Compounds called inactive in the main read-out are mostly missing here. Words in brackets tell the shape of the fitted curve; partial curves, single points and poor fits give uncertain potencies.

Experiment: qHTS Assay for Modulators of Lamin A Splicing
Conditions: HeLa LMNA splicing GFP/RFP minigene ratio, 48 h
Source text: NCGC Assay Overview: Hutchinson-Gilford Progeria Syndrome (HGPS) is a pediatric premature aging disease caused by a spontaneous mutation in the lamin A/C (LMNA) gene. The mutation activates a cryptic splice site in the LMNA pre-mRNA which results in production of a pre-lamin A protein that cannot be processed properly. The mutant protein accumulates in the nucleus and negatively affects numerous cellular functions. Correction of the splicing defect in HGPS patient cells using a targeted oligonucleotide (exo11) leads to reversal of the cellular disease phenotypes. To identify small molecule modulators of aberrant LMNA splicing, a homogenous assay was constructed in HeLa cells that used a GFP containing minigene to report on correction of aberrant splicing in lamin A and a RFP (DsRed2) to report on cell viability, uniformity and nonspecific effects on the assay signal. This assay was adapted to laser-scanning microplate cytometry (Acumen, TTP Labtech) where miniaturization of the assay to a 1,536-well plate format was possible. References: Bowen, W. P.; Wylie, P. G. Application of Laser-Scanning Fluorescence Microplate Cytometry in High Content Screening. Assay Drug Dev Technol 2006;4:209-221. Scaffidi P, Misteli T. Reversal of the cellular phenotype in the premature aging disease Hutchinson-Gilford progeria syndrome. Nat.
NCGC Assay Protocol Summary: Reagents/Controls: Stable clones expressing DsRed2 and lamin A-EGFP were generated by Cell and Molecular Technologies in S3 HeLa cells. HeLa cells were prepared for the assay when they were 70-90% confluent. The cells were counted and resuspended in Opti-MEM I (no phenol red; Gibco), 2% FBS, 1% penicillin/ streptomycin (Gibco) at concentration of 120 cells/uL concentration. The suspension was passed through a Falcon basket filter with pore size 40um (Beckton Dickson). Control titrations: column […] 1536-well plate contained a sixteen point titration (1:2 dilutions) in duplicate of ancitabine (Sigma: A8598) beginning at 40 uM final concentration. Column 2 contained a sixteen point titration (1:2 dilutions) of cycloheximide beginning at 1.4 mM final concentration. Column 3 contained ancitabine at 40 uM and column 4 contained was the vehicle control (0.5% DMSO final concentration). Assay Steps: 5 uL of HeLa cells were plated in Aurora LoBase black clear bottom (cyclic-olefin polymer) 1536-well plates at a final density of 600 cells/well. Controls and library compounds were added with a 1536-well pin array using the Kalypsys pin-tool. The plates were then incubated for 48 hrs in a cell-culture incubator (37 °C; 5% CO2, 98% humidity). Following incubation the plates were read on the Acumen Explorer using the 488 nm laser. Data was collected on objects between 10 and 100 um in size. Cell objects were defined by a 15 um width x 10 um depth filter. The ratio of the total object intensity in PMT1 (500-530 nm emission; GFP) over PMT3 (575-640 nm emission; RFP) was calculated for analysis. Keywords: NIH Roadmap, MLSCN, MLI, MLSMR, qHTS, NCGC, lamin A, Progeria, RNA splicing.

[1] = measured here: RFP viability control channel
[2] = measured here: GFP splicing reporter channel

| Structure (SMILES) | AC50 [1] | AC50 [2] |
| --- | --- | --- |
| O=c1c2ccccc2nc2sc3ccccc3n12 | 35.5 µM [rising, single point] | – |
| O=C(CSc1nnc(-c2cccs2)n1Cc1ccccc1)N1CCc2ccccc2C1 | 35.5 µM [rising, single point] | 35.5 µM [rising, single point] |
| Cc1ccc(Cn2ccc(NC(=O)c3noc4c3CCCCC4)n2)cc1 | 28.2 µM [rising, single point] | 11.2 µM [rising, partial curve] |
| COc1cc(CNCCc2ccccc2F)ccc1OCC(=O)N1CCCCC1 | – | 0.0224 µM [rising, full curve, poor fit] |
| CN(c1ccccc1)S(=O)(=O)c1cc(C(=O)OCC(N)=O)ccc1Cl | 2.24 µM [falling, single point] | 4.47 µM [falling, partial curve] |
| CCC1CN(C(=O)N2CCC(C(=O)NCc3cccc(C)c3)CC2)c2ccccc2O1 (centres undefined) | – | 11.2 µM [rising, partial curve, poor fit] |
| O=C(O)CCCCCNS(=O)(=O)c1ccc2c(c1)OCCO2 | – | 2.24 µM [rising, partial curve, poor fit] |
| CCOc1ccc(S(=O)(=O)NCc2csc(C)n2)cc1 | 31.6 µM [rising, single point] | – |
| CCNC(=S)N1CCc2cc(OC)c(OC)cc2C1COc1ccc(F)cc1 (centres undefined) | – | 20 µM [falling, partial curve] |
| O=C(O)[C@@H](S)[C@H](S)C(=O)O | 35.5 µM [rising, single point] | 8.91 µM [rising, partial curve, poor fit] |
| Cc1sc2nc3c(C(=O)N4CCCC4)cc(C(=O)c4ccccc4O)cn3c(=O)c2c1C | – | 17.8 µM [rising, single point] |
| Cc1nc(N2CCN(Cc3ccccc3)CC2)nc2c1C(=O)CC(c1ccco1)C2 (centres undefined) | 31.6 µM [rising, single point] | – |
| COc1ccc(OC)c(NC(=O)/C=C/c2ccccc2[N+](=O)[O-])c1 | 5.01 µM [rising, full curve, poor fit] | 0.126 µM [rising, full curve, poor fit] |
| COc1ccc(NS(=O)(=O)c2cccc(NC(=O)CCS(=O)(=O)c3ccccc3)c2)cc1 | 25.1 µM [rising, partial curve] | 12.6 µM [rising, single point] |
| S=C(Nc1ccc2c(c1)OCO2)N1CCCC1 | 0.794 µM [rising, full curve, poor fit] | 0.501 µM [rising, full curve, poor fit] |
| CCc1ccc(CNC(=O)c2ccc(NC(=O)N3CCCCc4ccccc43)cc2)cc1 | 0.00447 µM [falling, full curve, poor fit] | – |
| O=C(N/N=C/c1ccccc1O)C1(O)c2ccccc2-c2ccccc21 | 11.2 µM [rising, partial curve, poor fit] | – |
| COc1cc(Cl)cc(/C=C/c2ccc3ccccc3n2)c1OC(C)=O | – | 35.5 µM [falling, single point] |

| Structure (SMILES) | AC50 [1] | AC50 [2] |
| --- | --- | --- |
| CCc1ccc(-c2nn(CC(=O)Nc3ccccc3)c3c2cnc2ccc(F)cc23)cc1 | 5.01 µM [falling, full curve, poor fit] | 0.251 µM [falling, full curve, poor fit] |
| CC(=O)NCc1c(I)c(NC(C)=O)c(I)c(C(=O)O)c1I | 0.0316 µM [falling, full curve, poor fit] | 10 µM [falling, partial curve, poor fit] |
| COc1ccc(-n2c(N)c(C(=O)NCc3ccco3)c3nc4ccccc4nc32)cc1OC | 11.2 µM [rising, partial curve, poor fit] | – |
| CNC(=O)c1ccccc1NC(=O)c1cccc(S(=O)(=O)N2CCC(C)CC2)c1 | 14.1 µM [rising, single point] | – |
| CCO/N=C(/C)c1c(O)cc(C(C)(C)C)n(-c2ccccc2)c1=O | 5.62 µM [rising, partial curve] | – |
| O=C(Cn1c(=O)c2cccn2c2ccccc21)Nc1cc(F)ccc1F | 5.01 µM [rising, partial curve] | 0.0282 µM [rising, full curve, poor fit] |
| Cc1cccc(NC(=O)CSc2ncnc3nc[nH]c23)c1C | – | 0.02 µM [rising, full curve, poor fit] |
| COC(=O)C1=C(C)NC(=S)NC1c1ccc(-c2cccc(Cl)c2)o1 (centres undefined) | 5.01 µM [rising, partial curve, poor fit] | – |
| COc1ccc(S(=O)(=O)NCC2CCC(C(=O)NCCC(C)C)CC2)cc1 (centres undefined) | – | 35.5 µM [rising, single point] |
| Cn1c(C(=O)NCc2cccnc2)cc2sc(Cl)cc21 | 35.5 µM [rising, single point] | 20 µM [rising, single point] |
| COc1cccc(/C=N/NC(=O)c2cc(-c3cccn3C)n[nH]2)c1O | 7.08 µM [rising, partial curve] | – |
| CCOC(=O)c1sc2ccc(S(=O)(=O)N3CCCCC3)cc2c1N | – | 11.2 µM [rising, single point] |
| Cc1ccc2ncnc(Nc3ccccc3)c2c1 | – | 1.26 µM [falling, full curve, poor fit] |
| CC1(C)CC2CC(C)(CN2c2ncnc3ccccc23)C1 (centres undefined) | 11.2 µM [rising, partial curve] | 15.8 µM [rising, partial curve] |
| Cc1ccc(S(=O)(=O)CCC(=O)OCc2ccccc2)cc1 | 0.0224 µM [rising, full curve, poor fit] | – |
| CCOc1ccc(NC(=O)c2ccc(F)c(S(=O)(=O)N(CC)Cc3ccccc3)c2)cc1 | – | 1 µM [falling, partial curve] |
| O=C(C1CCC1)N1CCc2cc(S(=O)(=O)N3CCN(c4ccccn4)CC3)ccc21 | 12.6 µM [rising, partial curve] | – |
| C1CCN(CCCNC2C3CC4CC(C3)CC2C4)C1 (centres undefined) | 2.82 µM [rising, full curve, poor fit] | 3.55 µM [rising, single point] |

Given as tab-separated lines: 3 of the compounds above.
Structure (SMILES)	AC50 [1]	AC50 [2]
CCOC(=O)c1sc2ccc(S(=O)(=O)N3CCCCC3)cc2c1N	–	11.2 µM [rising, single point]
Cc1ccc2ncnc(Nc3ccccc3)c2c1	–	1.26 µM [falling, full curve, poor fit]
CC1(C)CC2CC(C)(CN2c2ncnc3ccccc23)C1 (centres undefined)	11.2 µM [rising, partial curve]	15.8 µM [rising, partial curve]
